Here are results for five molecules from paper PMC5548489.

Sequences of proteins named here, by UniProt entry; tags and fusion partners are left off.
UniProt P03372: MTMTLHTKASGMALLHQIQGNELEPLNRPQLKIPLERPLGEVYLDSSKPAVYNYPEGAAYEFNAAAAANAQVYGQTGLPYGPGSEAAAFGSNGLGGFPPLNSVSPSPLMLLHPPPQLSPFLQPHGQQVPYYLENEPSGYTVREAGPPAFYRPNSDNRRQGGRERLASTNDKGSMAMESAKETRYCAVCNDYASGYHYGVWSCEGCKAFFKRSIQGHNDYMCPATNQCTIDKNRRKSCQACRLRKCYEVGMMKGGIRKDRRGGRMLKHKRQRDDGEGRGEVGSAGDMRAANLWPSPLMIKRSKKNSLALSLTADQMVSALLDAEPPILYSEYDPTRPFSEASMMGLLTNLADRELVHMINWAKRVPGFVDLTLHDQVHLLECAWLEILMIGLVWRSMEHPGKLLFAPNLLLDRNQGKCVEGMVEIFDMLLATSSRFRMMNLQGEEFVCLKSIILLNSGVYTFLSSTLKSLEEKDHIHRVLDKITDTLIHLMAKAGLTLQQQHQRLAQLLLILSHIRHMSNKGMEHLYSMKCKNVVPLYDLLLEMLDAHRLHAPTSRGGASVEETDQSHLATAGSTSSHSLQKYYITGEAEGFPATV

Results are given in words; binding and its absence hold for the method and conditions named. Binding seen in cells or lysates may run through a third protein. These calls come from enrichment with a bait or labelling near it, and not all partners need be listed.

The labels stand for the following.
B1: CPSF2 (protein, UniProt Q9P2I0 1-782)
chain: MTSIIKLTTLSGVQEESALCYLLQVDEFRFLLDCGWDEHFSMDIIDSLRKHVHQIDAVLLSHPDPLHLGALPYAVGKLGLNCAIYATIPVYKMGQMFMYDLYQSRHNTEDFTLFTLDDVDAAFDKIQQLKFSQIVNLKGKGHGLSITPLPAGHMIGGTIWKIVKDGEEEIVYAVDFNHKREIHLNGCSLEMLSRPSLLITDSFNATYVQPRRKQRDEQLLTNVLETLRGDGNVLIAVDTAGRVLELAQLLDQIWRTKDAGLGVYSLALLNNVSYNVVEFSKSQVEWMSDKLMRCFEDKRNNPFQFRHLSLCHGLSDLARVPSPKVVLASQPDLECGFSRDLFIQWCQDPKNSIILTYRTTPGTLARFLIDNPSEKITEIELRKRVKLEGKELEEYLEKEKLKKEAAKKLEQSKEADIDSSDESDIEEDIDQPSAHKTKHDLMMKGEGSRKGSFFKQAKKSYPMFPAPEERIKWDEYGEIIKPEDFLVPELQATEEEKSKLESGLTNGDEPMDQDLSDVPTKCISTTESIEIKARVTYIDYEGRSDGDSIKKIINQMKPRQLIIVHGPPEASQDLAECCRAFGGKDIKVYMPKLHETVDATSETHIYQVRLKDSLVSSLQFCKAKDAELAWIDGVLDMRVSKVDTGVILEEGELKDDGEDSEMQVEAPSDSSVIAQQKAMKSLFGDDEKETGEESEIIPTLEPLPPHEVPGHQSVFMNEPRLSDFKQVLLREGIQAEFVGGVLVCNNQVAVRRTETGRIGLEGCLCQDFYRIRDLLYEQYAIV
B2: DKC1 (protein, UniProt O60832 1-514)
chain: MADAEVIILPKKHKKKKERKSLPEEDVAEIQHAEEFLIKPESKVAKLDTSQWPLLLKNFDKLNVRTTHYTPLACGSNPLKREIGDYIRTGFINLDKPSNPSSHEVVAWIRRILRVEKTGHSGTLDPKVTGCLIVCIERATRLVKSQQSAGKEYVGIVRLHNAIEGGTQLSRALETLTGALFQRPPLIAAVKRQLRVRTIYESKMIEYDPERRLGIFWVSCEAGTYIRTLCVHLGLLLGVGGQMQELRRVRSGVMSEKDHMVTMHDVLDAQWLYDNHKDESYLRRVVYPLEKLLTSHKRLVMKDSAVNAICYGAKIMLPGVLRYEDGIEVNQEIVVITTKGEAICMAIALMTTAVISTCDHGIVAKIKRVIMERDTYPRKWGLGPKASQKKLMIKQGLLDKHGKPTDSTPATWKQEYVDYSESAKKEVVAEVVKAPQVVAEAAKTAKRKRESESESDETPPAAPQLIKKEKKKSKKDKKAKAGLESGAEPGDGDSDTTKKKKKKKKAKEVELVSE
B3: CSTF3 (protein, UniProt Q12996 1-717)
chain: MSGDGATEQAAEYVPEKVKKAEKKLEENPYDLDAWSILIREAQNQPIDKARKTYERLVAQFPSSGRFWKLYIEAEIKAKNYDKVEKLFQRCLMKVLHIDLWKCYLSYVRETKGKLPSYKEKMAQAYDFALDKIGMEIMSYQIWVDYINFLKGVEAVGSYAENQRITAVRRVYQRGCVNPMINIEQLWRDYNKYEEGINIHLAKKMIEDRSRDYMNARRVAKEYETVMKGLDRNAPSVPPQNTPQEAQQVDMWKKYIQWEKSNPLRTEDQTLITKRVMFAYEQCLLVLGHHPDIWYEAAQYLEQSSKLLAEKGDMNNAKLFSDEAANIYERAISTLLKKNMLLYFAYADYEESRMKYEKVHSIYNRLLAIEDIDPTLVYIQYMKFARRAEGIKSGRMIFKKAREDTRTRHHVYVTAALMEYYCSKDKSVAFKIFELGLKKYGDIPEYVLAYIDYLSHLNEDNNTRVLFERVLTSGSLPPEKSGEIWARFLAFESNIGDLASILKVEKRRFTAFKEEYEGKETALLVDRYKFMDLYPCSASELKALGYKDVSRAKLAAIIPDPVVAPSIVPVLKDEVDRKPEYPKPDTQQMIPFQPRHLAPPGLHPVPGGVFPVPPAAVVLMKLLPPPICFQGPFVQVDELMEIFRRCKIPNTVEEAVRIITGGAPELAVEGNGPVESNAVLTKAVKRPNEDSDEDEEKGAVVPPVHDIYRARQQKRIR
B4: CPSF1 (protein, UniProt Q10570 1-1443)
chain: MYAVYKQAHPPTGLEFSMYCNFFNNSERNLVVAGTSQLYVYRLNRDAEALTKNDRSTEGKAHREKLELAASFSFFGNVMSMASVQLAGAKRDALLLSFKDAKLSVVEYDPGTHDLKTLSLHYFEEPELRDGFVQNVHTPRVRVDPDGRCAAMLVYGTRLVVLPFRRESLAEEHEGLVGEGQRSSFLPSYIIDVRALDEKLLNIIDLQFLHGYYEPTLLILFEPNQTWPGRVAVRQDTCSIVAISLNITQKVHPVIWSLTSLPFDCTQALAVPKPIGGVVVFAVNSLLYLNQSVPPYGVALNSLTTGTTAFPLRTQEGVRITLDCAQATFISYDKMVISLKGGEIYVLTLITDGMRSVRAFHFDKAAASVLTTSMVTMEPGYLFLGSRLGNSLLLKYTEKLQEPPASAVREAADKEEPPSKKKRVDATAGWSAAGKSVPQDEVDEIEVYGSEAQSGTQLATYSFEVCDSILNIGPCANAAVGEPAFLSEEFQNSPEPDLEIVVCSGHGKNGALSVLQKSIRPQVVTTFELPGCYDMWTVIAPVRKEEEDNPKGEGTEQEPSTTPEADDDGRRHGFLILSREDSTMILQTGQEIMELDTSGFATQGPTVFAGNIGDNRYIVQVSPLGIRLLEGVNQLHFIPVDLGAPIVQCAVADPYVVIMSAEGHVTMFLLKSDSYGGRHHRLALHKPPLHHQSKVITLCLYRDLSGMFTTESRLGGARDELGGRSGPEAEGLGSETSPTVDDEEEMLYGDSGSLFSPSKEEARRSSQPPADRDPAPFRAEPTHWCLLVRENGTMEIYQLPDWRLVFLVKNFPVGQRVLVDSSFGQPTTQGEARREEATRQGELPLVKEVLLVALGSRQSRPYLLVHVDQELLIYEAFPHDSQLGQGNLKVRFKKVPHNINFREKKPKPSKKKAEGGGAEEGAGARGRVARFRYFEDIYGYSGVFICGPSPHWLLVTGRGALRLHPMAIDGPVDSFAPFHNVNCPRGFLYFNRQGELRISVLPAYLSYDAPWPVRKIPLRCTAHYVAYHVESKVYAVATSTNTPCARIPRMTGEEKEFETIERDERYIHPQQEAFSIQLISPVSWEAIPNARIELQEWEHVTCMKTVSLRSEETVSGLKGYVAAGTCLMQGEEVTCRGRILIMDVIEVVPEPGQPLTKNKFKVLYEKEQKGPVTALCHCNGHLVSAIGQKIFLWSLRASELTGMAFIDTQLYIHQMISVKNFILAADVMKSISLLRYQEESKTLSLVSRDAKPLEVYSVDFMVDNAQLGFLVSDRDRNLMVYMYLPEAKESFGGMRLLRRADFHVGAHVNTFWRTPCRGATEGLSKKSVVWENKHITWFATLDGGIGLLLPMQEKTYRRLLMLQNALTTMLPHHAGLNPRAFRMLHVDRRTLQNAVRNVLDGELLNRYLYLSTMERSELAKKIGTTPDIILDDLLETDRVTAHF
B5: CHERP (protein, UniProt Q8IWX8 1-916)
chain: MEMPLPPDDQELRNVIDKLAQFVARNGPEFEKMTMEKQKDNPKFSFLFGGEFYSYYKCKLALEQQQLICKQQTPELEPAATMPPLPQPPLAPAAPIPPAQGAPSMDELIQQSQWNLQQQEQHLLALRQEQVTAAVAHAVEQQMQKLLEETQLDMNEFDNLLQPIIDTCTKDAISAGKNWMFSNAKSPPHCELMAGHLRNRITADGAHFELRLHLIYLINDVLHHCQRKQARELLAALQKVVVPIYCTSFLAVEEDKQQKIARLLQLWEKNGYFDDSIIQQLQSPALGLGQYQATLINEYSSVVQPVQLAFQQQIQTLKTQHEEFVTSLAQQQQQQQQQQQQLQMPQMEAEVKATPPPPAPPPAPAPAPAIPPTTQPDDSKPPIQMPGSSEYEAPGGVQDPAAAGPRGPGPHDQIPPNKPPWFDQPHPVAPWGQQQPPEQPPYPHHQGGPPHCPPWNNSHEGMWGEQRGDPGWNGQRDAPWNNQPDAAWNSQFEGPWNSQHEQPPWGGGQREPPFRMQRPPHFRGPFPPHQQHPQFNQPPHPHNFNRFPPRFMQDDFPPRHPFERPPYPHRFDYPQGDFPAEMGPPHHHPGHRMPHPGINEHPPWAGPQHPDFGPPPHGFNGQPPHMRRQGPPHINHDDPSLVPNVPYFDLPAGLMAPLVKLEDHEYKPLDPKDIRLPPPMPPSERLLAAVEAFYSPPSHDRPRNSEGWEQNGLYEFFRAKMRARRRKGQEKRNSGPSRSRSRSKSRGRSSSRSNSRSSKSSGSYSRSRSRSCSRSYSRSRSRSRSRSRSSRSRSRSQSRSRSKSYSPGRRRRSRSRSPTPPSSAGLGSNSAPPIPDSRLGEENKGHQMLVKMGWSGSGGLGAKEQGIQDPIKGGDVRDKWDQYKGVGVALDDPYENYRRNKSYSFIARMKARDECK

The test has as its target estrogen receptor alpha (ER) (human (endogenous in MCF-7 and ZR-75)) (UniProt P03372). In words: affinity purification with mass spectrometry; anti-ER antibody (Santa Cruz sc-8002) on Dynabeads Protein G, 1.5 mg lysate of MCF-7 or ZR-75 cells overnight at 4°C; cells starved, vehicle or 10 µM ERX-11 for 2 hr, then 10 nM E2 for 2 hr; the named proteins are ER binders whose co-precipitation was disrupted by ERX-11.
As to B1, the binding entry is “binds”.

Consider B2, for which the binding entry was “binds”.

Take B3: the binding entry was “binds”.

B4: the binding result is “binds”.

Consider B5, for which the binding result is “binds”.
